Results are given in words; binding and its absence hold for the method and conditions named. Some entries that bind do so weakly or less than the wild type.

Sequences of proteins named here, by UniProt entry; tags and fusion partners are left off.
UniProt P54619: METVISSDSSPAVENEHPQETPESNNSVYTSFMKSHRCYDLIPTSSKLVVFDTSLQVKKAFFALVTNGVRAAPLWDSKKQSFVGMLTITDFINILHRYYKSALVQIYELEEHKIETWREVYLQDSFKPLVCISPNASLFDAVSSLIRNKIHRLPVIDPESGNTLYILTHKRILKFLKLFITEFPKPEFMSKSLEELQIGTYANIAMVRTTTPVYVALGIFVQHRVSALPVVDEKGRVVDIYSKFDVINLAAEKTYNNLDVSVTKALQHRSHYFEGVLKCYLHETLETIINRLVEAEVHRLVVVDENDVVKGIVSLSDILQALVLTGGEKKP

The experiment deals with recombinant AMPK γ1 chain, His-tagged (UniProt P54619). The experiment is described as follows: co-IP.

B1: recombinant sestrin 2 (protein, UniProt P58004 1-480)
chain: MIVADSECRAELKDYLRFAPGGVGDSGPGEEQRESRARRGPRGPSAFIPVEEVLREGAESLEQHLGLEALMSSGRVDNLAVVMGLHPDYFTSFWRLHYLLLHTDGPLASSWRHYIAIMAAARHQCSYLVGSHMAEFLQTGGDPEWLLGLHRAPEKLRKLSEINKLLAHRPWLITKEHIQALLKTGEHTWSLAELIQALVLLTHCHSLSSFVFGCGILPEGDADGSPAPQAPTPPSEQSSPPSRDPLNNSGGFESARDVEALMERMQQLQESLLRDEGTSQEEMESRFELEKSESLLVTPSADILEPSPHPDMLCFVEDPTFGYEDFTRRGAQAPPTFRAQDYTWEDHGYSLIQRLYPEGGQLLDEKFQAAYSLTYNTIAMHSGVDTSVLRRAIWNYIHCVFGIRYDDYDYGEVNQLLERNLKVYIKTVACYPEKTTRRMYNLFWRHFRHSEKVHVNLLLLEARMQAALLYALRAITRYMT
Consider B1, for which the binding entry is given as “binds”.

Values taken from publication doi:10.1101/2024.05.17.594698.
